Measured values as given in PubChem BioAssay AID1487 (National Center for Advancing Translational Sciences (NCATS), 2009).
The other results are listed elsewhere or left out. Shown are side measurements of this screen, not its main read-out; they come without a call. Most of these compounds were active or inconclusive in the main read-out, so they are no random draw. Words in brackets tell the shape of the fitted curve; partial curves, single points and poor fits give uncertain potencies.

Experiment: qHTS Assay for Modulators of Lamin A Splicing
Conditions: HeLa LMNA splicing GFP/RFP minigene ratio, 48 h
Summary of the method: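 S3 HeLa stable clones carrying a lamin A-EGFP splicing minigene plus DsRed2 were seeded at 600 cells/well in Opti-MEM with 2% FBS, pin-dosed and incubated 48 h at 37°C. Acumen cytometry (488 nm) gave the GFP/RFP total-intensity ratio.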

[1] = measured here: RFP viability control channel
[2] = measured here: GFP splicing reporter channel

CC(=O)N(c1ccc(C)cc1)S(=O)(=O)c1ccc(Cl)cc1
AC50 [1]: 25.1 µM [rising, single point]

CCOc1ccc(NC(=O)CN2CCN(Cc3ccccc3)S2(=O)=O)cc1
AC50 [1]: 31.6 µM [rising, partial curve, poor fit]

O=C(Nc1nc(-c2nc3ccccc3s2)cs1)c1ccc(S(=O)(=O)N2CCOCC2)cc1
AC50 [1]: 1.41 µM [rising, partial curve]

CC(C)[C@H](Nc1ccc(S(=O)(=O)N2CCOCC2)cc1[N+](=O)[O-])C(=O)OCC(=O)N(C(C)C)C(C)C
AC50 [1]: 31.6 µM [rising, single point]

N/C(=N\OC(=O)CC(c1ccccc1)c1ccccc1)c1cccnc1
AC50 [2]: 0.02 µM [rising, full curve, poor fit]

CN(CC(=O)Nc1cccc(Cl)c1)S(=O)(=O)c1ccc2[nH]c3c(c2c1)CCCC3
AC50 [1]: 35.5 µM [rising, single point]

COc1cccc(-c2nn3c(-c4ccccn4)nnc3s2)c1
AC50 [1]: 22.4 µM [rising, single point]

COc1ccc(CNC(=O)Cn2c(=O)oc3cc(S(=O)(=O)N4CCCCCC4)ccc32)cc1
AC50 [1]: 0.00447 µM [falling, full curve, poor fit]

Cc1cc(C)c2c(c1)-c1cc(C)nn1C(c1ccc3c(c1)OCO3)N2 (stereo not drawn)
AC50 [1]: 14.1 µM [rising, partial curve, poor fit]

Cc1cn([C@H]2C=C[C@@H](CO)O2)c(=O)[nH]c1=O
AC50 [1]: 35.5 µM [rising, partial curve, poor fit]

CC(C)N(C(=O)CSc1nnnn1C1CCCC1)C(C)C
AC50 [1]: 5.62 µM [rising, single point]

CCCNC(=O)Cc1ncn[nH]1
AC50 [1]: 3.16 µM [falling, partial curve, poor fit]

CC(=O)c1cccc(NC(=O)CN(c2ccc(C)cc2)S(=O)(=O)c2cccc3nonc23)c1
AC50 [2]: 35.5 µM [rising, single point]
AC50 [1]: 35.5 µM [rising, single point]

O=C(c1cccc2ccccc12)N1CCN(c2ccc([N+](=O)[O-])c(NCc3ccco3)c2)CC1
AC50 [1]: 1 µM [rising, full curve, poor fit]

O=C(Cc1ccc(Cl)cc1)Nc1ccccc1Sc1ccccc1
AC50 [2]: 25.1 µM [rising, single point]
AC50 [1]: 31.6 µM [rising, single point]

Cc1ccc2c(C)c(C(=O)Nc3ccc(S(N)(=O)=O)cc3)oc2c1C
AC50 [2]: 6.31 µM [falling, partial curve, poor fit]

CCc1cccc(N(C)C(N)=Nc2cccc3ccccc23)c1
AC50 [2]: 12.6 µM [falling, partial curve, poor fit]
AC50 [1]: 0.00562 µM [falling, full curve, poor fit]

CCCCn1ccnc1C(=O)c1cccc(S(=O)(=O)N2CC(C)CC(C)C2)c1 (stereo not drawn)
AC50 [2]: 1.26 µM [rising, partial curve, poor fit]
AC50 [1]: 35.5 µM [rising, single point]

CCOc1ccccc1C(=O)N1CCN(c2cccc(Cl)c2)CC1
AC50 [1]: 0.891 µM [rising, full curve]

CS(=O)(=O)N1CCN(C(=O)NC23CC4CC(CC(C4)C2)C3)CC1
AC50 [1]: 20 µM [rising, partial curve, poor fit]

CCc1ccc(CNC(=O)C(=O)NCC2CCCO2)cc1 (stereo not drawn)
AC50 [1]: 0.0708 µM [falling, full curve, poor fit]

CC/C(=N\NC(=S)Nc1ccc(OC)cc1)c1ccc(OC(F)F)cc1
AC50 [2]: 31.6 µM [rising, single point]
AC50 [1]: 35.5 µM [rising, single point]

C=CCn1c(SCC(=O)NCC)nnc1-c1cc2c(s1)CCC(CC)C2 (stereo not drawn)
AC50 [2]: 15.8 µM [rising, single point]
AC50 [1]: 25.1 µM [rising, single point]

CC1=CC(C)(C)Nc2ccc(OC(=O)CN3C(=O)CCC3=O)cc21
AC50 [2]: 35.5 µM [falling, single point]
AC50 [1]: 35.5 µM [falling, single point]

CCn1cc(C(=O)OCC(=O)Nc2c(C)cccc2C)c(=O)c2ccc(C)nc21
AC50 [2]: 0.0501 µM [rising, partial curve, poor fit]
AC50 [1]: 0.355 µM [rising, partial curve, poor fit]

COc1cccc(NC(=O)CCC(=O)Nc2cccc(OC)c2)c1
AC50 [2]: 6.31 µM [falling, single point]

COc1ccc(CN2C(=O)CC(Cc3cc(C)cc(C)c3)C2=O)cc1OC (stereo not drawn)
AC50 [1]: 11.2 µM [rising, single point]

O=C(Nc1cccc(Cl)c1)Nc1nccs1
AC50 [1]: 31.6 µM [rising, single point]

Cc1cc(C)cc(NC(=S)NCCSc2ccc(Cl)cc2)c1
AC50 [2]: 35.5 µM [rising, single point]
AC50 [1]: 35.5 µM [rising, single point]

c1ccc(-c2onc3cc4c(cc23)OCCO4)cc1
AC50 [2]: 17.8 µM [rising, single point]
AC50 [1]: 31.6 µM [rising, single point]

CCCc1cc2c(cc1NC(=O)c1ccc(C(C)(C)C)cc1)OCO2
AC50 [1]: 10 µM [rising, partial curve, poor fit]

COc1cc(C(=O)O)c([N+](=O)[O-])c(OC)c1OC
AC50 [2]: 4.47 µM [rising, partial curve]

Cc1ccc(CN(C)CC(=O)Nc2ccc3c(c2)CCC3)cc1
AC50 [1]: 11.2 µM [rising, partial curve]

CCc1ccc(NC(=O)N2CCC(N3CCN(Cc4ccc(C)cc4)C(=O)C3=O)CC2)cc1
AC50 [2]: 0.2 µM [falling, full curve, poor fit]
AC50 [1]: 0.112 µM [falling, full curve, poor fit]

CCNc1ncc2nc(-c3ccc(OC)cc3)c(=O)n(CCc3ccccc3)c2n1
AC50 [2]: 22.4 µM [falling, single point]
AC50 [1]: 25.1 µM [falling, single point]

N#Cc1ccc(NC(=O)N2CCC(c3nc4c(nnn4Cc4cccc(Cl)c4)c(=O)[nH]3)CC2)cc1
AC50 [2]: 12.6 µM [rising, single point]
